44 molecules from the supplement of paper PMC11237882 can be followed below.

The labels stand for the following.
T1: Homer1 EVH1 domain
T1 chain: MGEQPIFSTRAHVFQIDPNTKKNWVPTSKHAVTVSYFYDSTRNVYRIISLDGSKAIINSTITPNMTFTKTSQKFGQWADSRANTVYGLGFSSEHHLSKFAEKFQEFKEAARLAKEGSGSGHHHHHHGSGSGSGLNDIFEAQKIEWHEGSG

The other results are listed elsewhere or left out. Values are worked out from sequencing counts and are noisy.

This assay addresses T1, Homer1 EVH1 domain. The assay can be described thus: enrichment score (AUC of log2 frequency ratio across FACS sorting rounds) (log2 AUC); higher = stronger enrichment for Homer1 EVH1 binding.
As for VNKYLDFSLFKHRGFLIYLSGNVIMFLGFFAPIIFL, the enrichment score is 2.56. As to QAISLLIVTNVGAYILYFFCATLSYYFVFDHALMKH, the enrichment score is 1.86. For the molecule SYLSLQTVTLAVLLFGYAINCLERRDKSQIFTILEH, the enrichment score worked out at 2.04.

With ISLVLCVVLGLMLCMQRCRNTSQFDGDYISKLPKSN, the enrichment score is 1.11. Next, GFCAFLGSWLVPFAYLTVLDLSKSLSAALLTAALLT: 0.199; RSRAFSTWGSHIIAVALFFGSGTFTYLTTSFPGSMN: -0.488; LIKYRRLRIMTNIYLLNLAISDLLFLVTLPFWIHYV: -2.37. Next, RLIFITVLFSIIIWVVWISMLLRGNPQFQRQPQWDD: -0.284; MVVTPRRAAVAIAGCWILSFVVGLTPMFGWNNLSAV: 1.63; FCDIAPLLQVACINTHLIEKINFLLSALVILSSLAF: -0.276.

PPCKTGAWIVPAIMACYLLVANILLVNPLIAVFNNT: the enrichment score turned out to be 3.9. For the molecule MKILFVEPAIFLSAFAMTLTGPLTTQYVYRRIWEET, the enrichment score is -3.11. For RSGLPRWILACCLFLSVLVMLWLSCSTLVTAPGQHL, the enrichment score was found to be 2.07. For MLFSALLLEVIWILAADGGQHWTYEGPHGQDHWPAS, the enrichment score was 1.25. For AFKDMKASPEIISGRMTTALILYSAIFMRFAYRVQP the value was -0.321; for NKGSGTTSGTTRLLSGHTCFTLTGLLGTLVTMGLLT, 3.48. In the case of SPNPVAMETRSDNRPSVPVQFQYFLPTYPPSAYPRS, the enrichment score was 4.51.

Take SRGRHREKEDIKITKERTPESEEENVEWETNRDDSG: the enrichment score is -0.0789.

As for MEETKEWKSEEELHRRKSSRRHSLNQQTKALQYLRR, the enrichment score is -0.697. Turning to GLRAHLAAIERWEDRPRRSQVLQVLGLALFLTLGTL, the enrichment score came out at 2.72. On to MVSYWDTGVLLCALLSCLLLTGSSSGSKLKDPELSL, for which the enrichment score was 2.66. Consider SLCWGLSVLYGLLLTFLLTRVTFCGPREIHYLFCDM, for which the enrichment score worked out at 2.35.

For the molecule HPDAVPALFRTVPVFTLPSQLPDFLGALQQPRAPRS, the enrichment score was -2.32. NDIREKREKIKEMMKHAWDNYRTYGWGHNELRPIAR: the enrichment score was -2.64. With VMLNMATEILKAFGLKGIISKTEGAGINKLIMAKKK, the enrichment score was -0.754. Next, ILQEKITRGKYGEGAKQETFTFALTLVFIQCVINAV: -0.595; PIKTTMLLKIQQNIGVIAAFTVAVLAAGISFHYFSD: 2.8. As to SVLYGWSFFLAPAGIFFSLLAGLLFLVVDRHIQIHH, the enrichment score was 3.46. For RGGIFGLLGCLQAIGLFASMAAVLLGGARASRLLFH, the enrichment score is -0.662. As for GTGLTPLHLSDDGEGGTFHFHDPPPPYTAYKYPDIG, the enrichment score stood at 0.356. Consider TPIAARFGDLITLAILAWISQGLYSCLETYYYISPL, for which the enrichment score came to 4.37. For EKENQDKLVKFMIRIGVFSILYLVPLLVVIGCYFYE, the enrichment score was 1.45. For GYISLVQCILQVFFFIALASSEVAILTVMSYDRYAA the value was 0.595. Next, EKIKELEAEIQQLRTQAQVLSSSSGIPGPPAAPPLP: -0.648.

As to NIFIALLVILISYTFIFITILKMHSASVYQKPLSTS, the enrichment score was -0.854. Turning to PSLRQQLFSYAILGFALSEAMGLFCLMVAFLILFAM, the enrichment score came out at 2.31. For the molecule DPPSVFNMPEADLKRIFWVLSLPIITLLFLTTPDCR, the enrichment score turned out to be 3.7. In the case of FSKLDYSGIALLIMGSFVPWLYYSFYCSPQPRLIYL, the enrichment score came out at 4.68. For LMVITGVALCCWRHSKASASFSEQKNLMRIPGSSDG the value was 2.15.

Turning to SSLRWAPGPLHVLQVAMAFGLALATLVQSVGHISGA, the enrichment score was 3.77. As to RYHHYCTRSQLAWNSAVSLVLFVWLSSAFWAALPLP, the enrichment score was -1.76. Regarding APAFPPPLLLPPPTGDLRLQPPPPLPFGLGGFPPTP, the enrichment score turned out to be 6.27. PFGEYFCQVLGALTVFYPSIALWLLAFISADRYMAI: the enrichment score was found to be 1.01. As to SCIVCLFVGLYYNVIIGWSIFYFFKSFQYPLPWSEC, the enrichment score was found to be 1.15.
